Binding data for 3 molecules are collected here from doi:10.1101/2025.11.27.690710.

For assay [1], the target named is T1, full length His-tagged NANOG (mouse) (UniProt Q80Z64).
T1 sequence: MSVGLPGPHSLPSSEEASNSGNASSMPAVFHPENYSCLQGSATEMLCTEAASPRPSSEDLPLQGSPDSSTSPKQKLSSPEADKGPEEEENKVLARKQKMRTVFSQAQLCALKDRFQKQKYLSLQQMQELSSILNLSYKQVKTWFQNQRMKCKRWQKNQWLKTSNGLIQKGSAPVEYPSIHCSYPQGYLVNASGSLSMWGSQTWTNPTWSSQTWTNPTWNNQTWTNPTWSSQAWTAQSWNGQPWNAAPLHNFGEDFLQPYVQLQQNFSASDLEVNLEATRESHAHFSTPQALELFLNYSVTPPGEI
Description: pull-down.

Assay [2] has as its target T2, Recombinant full length NANOG, purified and refolded (mouse) (UniProt Q80Z64).
T2 sequence: T1 sequence
The assay is described as follows: native gel or EMSA. Background: A gel shift assay detects complexes by their altered migration in electrophoresis.

The target in assay [3] is GST-CTD (C-terminal domain of RNA Polymerase II) (mouse). The assay is described as follows: pull-down.

Results are given in words; binding and its absence hold for the method and conditions named. A result given as binding can be weak or reduced; the word gives no strength. For part of these data: Binding seen in cells or lysates may run through a third protein. For part of these data: Sequences can lack the tags named with a protein.

As for “GST-CTD (C-terminal domain of RNA Polymerase II) (mouse) (domain or fragment)”, in assay [1], the binding result is on record as “binds”.
Consider “Recombinant CTD expressed as a GST-fusion, purified (mouse) (domain or fragment)”, for which the binding result in assay [2] is “binds”.

B1: full length His-tagged NANOG (protein, UniProt Q80Z64 1-305)
chain: T1 sequence
On to B1, for which the binding result in assay [3] is reported as “binds”.
